The other results are listed elsewhere or left out. These are further read-outs of the screen, such as a control signal, another cell line or another target. No call is given for them. The list favours compounds with an active or inconclusive main result. Words in brackets tell the shape of the fitted curve; partial curves, single points and poor fits give uncertain potencies.
assay: IkB Signaling; conditions: ABC-DLBCL IkBa-CBG/CBR dual luciferase ratio (green luciferase fused to IkBa over red control in OCI-Ly3 lymphoma cells), 4 h; measured here: control luc red channel unless noted
Procedure, shortened: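 In this assay, an IκBα–CBG68 fusion accumulates when IKK-driven degradation is blocked; native CBR normalizes for cell number. OCI-Ly3 cells were treated 4 h with compound and doxycycline, then green and red light read after Chroma-Glo addition.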

**Q.** With `Cc1ccc(-c2nc3ccc(Cl)cn3c2Nc2ccc3c(c2)OCCO3)s1` as the compound, how does the AC50 read?
**A.** 1 µM [falling, partial curve]

**Q.** For `CCCOc1ccc(CN(C(=O)c2nc(SC(C)C)ncc2Cl)C2CCS(=O)(=O)C2)cc1` (stereo not given), which AC50 is on record?
**A.** 39.8 µM [falling, single point]

**Q.** With `CSc1ccc(CCNC(=O)CCc2c(C)nc3cc(-c4ccccc4)nn3c2C)cc1` as the compound, how does the AC50 read?
**A.** 3.98 µM [falling, partial curve]

**Q.** Which AC50 does the source give for `N#Cc1ccccc1Cn1c(=O)n(Cc2ccc(C(=O)NC3CCN(Cc4ccccc4)CC3)cc2)c(=O)c2ccccc21` here?
**A.** 0.0794 µM [rising, full curve, poor fit]

**Q.** With `O=C(Nc1c(C(=O)Nc2cccc(F)c2)oc2ccccc12)c1cc2ccccc2o1` as the compound, how does the AC50 read?
**A.** 0.251 µM [falling, partial curve]

**Q.** Which AC50 does the source give for `CCc1cc2c(NCc3ccco3)ncnc2s1` here?
**A.** 20 µM [falling, partial curve]

**Q.** Which AC50 does the source give for `COc1cc2[nH]c(=O)n(CCCCCC(=O)NCCc3ccccc3)c(=O)c2cc1OC` here?
**A.** 0.0794 µM [falling, full curve, poor fit]

**Q.** Which AC50 does the source give for `COc1ccc(CCNC(=O)CCCCCn2c(=O)[nH]c3cc(OC)c(OC)cc3c2=O)cc1OC` here?
**A.** 12.6 µM [falling, partial curve]

**Q.** Which AC50 does the source give for `CCOC(=O)c1cccc(NC(c2nnc(-c3ccccc3)o2)c2ccccc2F)c1` (stereo not given) here?
**A.** 20 µM [falling, partial curve]

**Q.** For `CCc1ccc(NC(=O)Cn2c(=O)oc3cc(S(=O)(=O)NCc4ccccc4)ccc32)cc1`, which AC50 is on record?
**A.** 0.158 µM [falling, full curve, poor fit]

**Q.** With `Cc1ccc(CNC(=O)C2CCCN(c3nnc(-n4c(C)ccc4C)s3)C2)cc1` (stereo not given) as the compound, how does the AC50 read?
**A.** 31.6 µM [falling, single point]

**Q.** Which AC50 does the source give for `CCC(c1nnnn1CCc1ccccc1)N(Cc1ccco1)Cc1cc2c(C)ccc(C)c2[nH]c1=O` (stereo not given) here?
**A.** 5.01 µM [falling, full curve]

**Q.** With `COc1ccc(NC(=O)CSc2nc(O)c(C/C=C/c3ccccc3)c(=O)[nH]2)cc1` as the compound, how does the AC50 read?
**A.** 15.8 µM [falling, partial curve]

**Q.** With `CCOC(=O)C(C(=O)N1CCOCC1)C1CCCCC1` (stereo not given) as the compound, how does the AC50 read?
**A.** 20 µM [falling, partial curve]

**Q.** For `O=C(NCc1ccccc1)C1CCN(C(=O)c2cnn(-c3ccccc3)c2-n2cccc2)CC1`, which AC50 is on record?
**A.** 0.0631 µM [falling, full curve, poor fit]

**Q.** With `COc1ccc2cc(C(=O)NCc3ccc4c(c3)CCN4C(=O)c3ccc(C)cc3)[nH]c2c1` as the compound, how does the AC50 read?
**A.** 39.8 µM [falling, single point]

**Q.** With `O=C(NCc1ccccc1Cl)c1ccc(CSCc2cccc(F)c2)o1` as the compound, how does the AC50 read?
**A.** 39.8 µM [falling, single point]

**Q.** For `O=C(O)CCn1cnc2onc(-c3ccccc3Cl)c2c1=O`, which AC50 is on record?
**A.** 0.316 µM [rising, full curve, poor fit]

**Q.** With `O=C(Nc1c(C(=O)Nc2cccc(C(F)(F)F)c2)oc2ccccc12)c1cc(=O)c2ccccc2o1` as the compound, how does the AC50 read?
**A.** 10 µM [rising, partial curve]

**Q.** Which AC50 does the source give for `O=C(NCc1ccc(Cl)cc1)c1ccc2c(c1)NC(=O)C(CS(=O)(=O)Cc1ccccc1Cl)N2` (stereo not given) here?
**A.** 25.1 µM [falling, single point]

**Q.** Which AC50 does the source give for `CCn1c(=O)c2cc(C(=O)NCCCN(C)Cc3ccccc3)sc2c2ccccc21` here?
**A.** 15.8 µM [falling, partial curve]

**Q.** Which AC50 does the source give for `CCc1cccc(NC(=O)Cn2cc(C(=O)c3ccncc3)c(=O)c3cc(C)c(C)cc32)c1` here?
**A.** 15.8 µM [falling, single point]

**Q.** With `COc1ccc(-c2cn3c(C)c(C(=O)NCCN4CCOCC4)sc3n2)cc1` as the compound, how does the AC50 read?
**A.** 1 µM [falling, full curve]

**Q.** Which AC50 does the source give for `COC(=O)c1cnc(N2CCN(c3ccccc3OC)CC2)c2ccccc12` here?
**A.** 39.8 µM [falling, partial curve]

**Q.** Which AC50 does the source give for `CCOC(=O)c1sc2ccccc2c1S(=O)(=O)NCc1ccc(F)cc1` here?
**A.** 12.6 µM [falling, partial curve]

**Q.** With `CCC(C)NC(=O)c1cc(-c2ccc(OC)cc2)on1` (stereo not given) as the compound, how does the AC50 read?
**A.** 2 µM [falling, partial curve]

**Q.** With `COc1ccc(Nc2nc(N3CCCC3)nc3ccccc23)c(OC)c1` as the compound, how does the AC50 read?
**A.** 25.1 µM [falling, single point]

**Q.** Which AC50 does the source give for `CCOC(=O)c1ccc(NC(=O)CSc2nccn2-c2ccc(OCC)cc2)cc1` here?
**A.** 3.16 µM [falling, full curve, poor fit]

**Q.** For `Cc1cccc(N2CCN(C(=O)Cn3cnc4sc(C)c(S(=O)(=O)N5CCN(c6ncccn6)CC5)c4c3=O)CC2C)c1` (stereo not given), which AC50 is on record?
**A.** 31.6 µM [falling, single point]

**Q.** Which AC50 does the source give for `FC(F)(F)c1cccc(-c2nnn3c2nc(NC2CCCCC2)c2ccccc23)c1` here?
**A.** 20 µM [falling, partial curve]

**Q.** With `O=C1CCN(S(=O)(=O)c2ccccc2)C2CCCCC12` (stereo not given) as the compound, how does the AC50 read?
**A.** 12.6 µM [falling, partial curve]

**Q.** For `CCC(C)NC(=O)C1CCN(C(=O)c2ccc(-n3ccc4ccccc43)s2)CC1` (stereo not given), which AC50 is on record?
**A.** 2.51 µM [falling, full curve]

**Q.** With `COc1cc([N+](=O)[O-])ccc1NC(=O)N1CCN(c2cc(-c3noc(C)n3)ccc2C)CC1` as the compound, how does the AC50 read?
**A.** 1 µM [rising, single point]

**Q.** With `COc1ccc(NC(=O)C(C)n2nnc3sc(-c4ccccc4)cc3c2=O)cc1Cl` (stereo not given) as the compound, how does the AC50 read?
**A.** 3.98 µM [falling, partial curve]

**Q.** For `CCOc1ccc(CCNC(=O)c2cc(=O)[nH]c3ccc(S(=O)(=O)N4CCCCC4)cc23)cc1OCC`, which AC50 is on record?
**A.** 1 µM [rising, partial curve]

**Q.** With `CC(C)C(=O)Nc1ccc(NC(=O)c2ccco2)cn1` as the compound, how does the AC50 read?
**A.** 0.00316 µM [rising, full curve, poor fit]

**Q.** For `COc1cccc(NC(=O)C(=O)NCCc2csc(-c3ccc(C(F)(F)F)cc3)n2)c1`, which AC50 is on record?
**A.** 0.1 µM [falling, full curve]

**Q.** Which AC50 does the source give for `CCCOc1ccc2oc(=O)c3c(c2c1)CCCN3C(=O)CN(C)Cc1ccccc1` here?
**A.** 12.6 µM [falling, partial curve]

**Q.** For `Cc1cccc(N(C)c2nc3ccc(C)cc3n3cnnc23)c1`, which AC50 is on record?
**A.** 12.6 µM [falling, partial curve]

**Q.** With `CCCCOC(=O)c1[nH]c2c(c1C)C(=O)CC(c1cc(OC)c(OC)c(OC)c1)C2` (stereo not given) as the compound, how does the AC50 read?
**A.** 2.51 µM [falling, full curve]

From PubChem BioAssay AID445 (National Center for Advancing Translational Sciences (NCATS), 2006)
